Results are given in words; binding and its absence hold for the method and conditions named. Binding seen in cells or lysates may run through a third protein. Some entries that bind do so weakly or less than the wild type.
Biological target: T1, forkhead box P3 (Foxp3) (mouse (endogenous in iTreg cells)) (UniProt Q99JB6)
T1 sequence: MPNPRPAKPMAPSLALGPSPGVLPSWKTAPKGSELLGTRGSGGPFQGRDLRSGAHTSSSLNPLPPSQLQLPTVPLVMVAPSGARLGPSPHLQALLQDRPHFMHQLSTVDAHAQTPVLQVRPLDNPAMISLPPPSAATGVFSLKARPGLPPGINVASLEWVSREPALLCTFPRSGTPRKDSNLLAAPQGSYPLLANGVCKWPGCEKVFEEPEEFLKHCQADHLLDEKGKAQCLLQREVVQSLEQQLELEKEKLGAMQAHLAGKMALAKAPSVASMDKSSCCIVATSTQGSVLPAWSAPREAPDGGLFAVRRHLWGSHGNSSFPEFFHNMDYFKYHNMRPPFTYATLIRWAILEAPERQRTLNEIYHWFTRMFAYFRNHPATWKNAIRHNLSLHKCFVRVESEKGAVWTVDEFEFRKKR
Experiment: co-IP; lysates of mouse iTreg cells in RIPA buffer; immunoprecipitated with antibodies (1 ug/mL) and protein A sepharose beads at 4 °C, immunoblot; isotype matched IgG and Foxp1f/fFoxp3Cre cells as controls

By UniProt entry, the sequences of proteins in these tests, tags left out.
UniProt P58462: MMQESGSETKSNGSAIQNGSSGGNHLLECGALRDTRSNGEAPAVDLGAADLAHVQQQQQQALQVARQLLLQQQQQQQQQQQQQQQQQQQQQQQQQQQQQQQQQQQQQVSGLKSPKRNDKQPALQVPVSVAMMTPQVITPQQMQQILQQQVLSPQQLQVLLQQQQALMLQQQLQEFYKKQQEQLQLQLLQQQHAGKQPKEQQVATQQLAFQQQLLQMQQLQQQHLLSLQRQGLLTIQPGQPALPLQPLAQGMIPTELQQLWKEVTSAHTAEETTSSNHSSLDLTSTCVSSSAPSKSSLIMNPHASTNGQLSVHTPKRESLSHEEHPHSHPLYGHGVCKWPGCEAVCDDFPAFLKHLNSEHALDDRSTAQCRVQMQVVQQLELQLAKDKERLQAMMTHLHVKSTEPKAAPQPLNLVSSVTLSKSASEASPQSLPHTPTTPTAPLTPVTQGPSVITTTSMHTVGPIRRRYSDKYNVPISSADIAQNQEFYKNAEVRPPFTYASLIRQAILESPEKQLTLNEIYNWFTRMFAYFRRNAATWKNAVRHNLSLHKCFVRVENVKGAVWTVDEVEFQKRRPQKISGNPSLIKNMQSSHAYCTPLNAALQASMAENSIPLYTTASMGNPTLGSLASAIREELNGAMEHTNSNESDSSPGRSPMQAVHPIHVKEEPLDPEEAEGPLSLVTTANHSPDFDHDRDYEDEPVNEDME

binding: binds
Substance: forkhead box P1 (Foxp1) (from UniProt P58462 1-705)
